Measured values reported in the supplement of paper PMC11150407.
About 180 (8.6%) of roughly 2,100 compounds showed an effect of 50% or more. The list shows a part of the results.

Tested on: MOLM1 and UCSD/AML1 (averaged)
Assay: cell viability relative to DMSO control (POC); higher = less growth inhibition
Conditions: 1 µM; 72 h
Experimental: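 Primary viability screen in the 3q26 EVI1-high AML cell lines MOLM1 and UCSD/AML1 (1.5e3 cells/well, 384-well), compounds at 1 uM for 72 h. ATP CellTiter-Glo read-out given as percent of viable cells over DMSO control (POC), averaged over duplicates. DMSO was the negative control and 5 uM etoposide the positive control. This mapping covers the MicroSource Spectrum and Selleck anticancer libraries (drug names).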

Compound | cell viability
N#Cc1c(Cl)c(Cl)c(Cl)c(C#N)c1Cl | 1.55%
CC[N+]1(C)CCCC(OC(=O)C(O)(c2ccccc2)c2ccccc2)C1 (centres undefined) | 87.3%
CC1=C2C(=CO[C@H](C)[C@H]2C)C(O)=C(C(=O)O)C1=O | 104%
CC1C=CC=CCCC=CC=CC=CC=CC(OC2OC(C)C(O)C(N)C2O)CC2OC(O)(CC(O)C(O)CCC(O)CC(O)CC(O)CC(=O)OC(C)C(C)C1O)CC(O)C2C(=O)O (centres undefined) | 92.4%
C[C@@H]1C[C@H](O)[C@@]2(O)[C@]13CC(=O)OC[C@@]2(C)[C@@](C)(O)C(=O)C3 | 92.3%
CC(=O)O[C@H]1CC[C@@]2(C)[C@H](CC[C@@H]3[C@@H]2CC[C@]2(C)[C@@H](C4=CC(=O)OC4)[C@@H](OC(C)=O)C[C@]32O)C1 | 2.29%
COc1cc2c(c(OC)c1OC)-c1ccc(OC)c(=O)cc1[C@@H](NC(C)=O)CC2 | 6.75%
N#C[C@H](O[C@@H]1O[C@H](CO[C@@H]2O[C@H](CO)[C@@H](O)[C@H](O)[C@H]2O)[C@@H](O)[C@H](O)[C@H]1O)c1ccccc1 | 87.5%
CC[C@@H](CO)NC(=O)[C@@H]1C=C2c3cccc4c3c(cn4C)C[C@H]2N(C)C1 | 103%
CN1C[C@H](CNC(=O)OCc2ccccc2)C[C@@H]2c3cccc4c3c(cn4C)C[C@H]21 | 89.9%
O=C(O)CC[N+](=O)[O-] [BOVINOCIDIN (3-nitropropionic acid)] | 94.6%
Oc1ccc2c3c1O[C@H]1[C@@H](O)CC[C@@]4(O)[C@@H](C2)N(CC2CCC2)CC[C@]314 | 102%
C/C=C/c1ccc2c(c1)OCO2 | 108%
CN1CCc2cc3c(cc2[C@H]1[C@@H]1OC(=O)c2c1ccc1c2OCO1)OCO3 | 93.9%
N[C@H](CO)Cc1ccccc1 | 92.1%
CC(O)(CS(=O)(=O)c1ccc(F)cc1)C(=O)Nc1ccc(C#N)c(C(F)(F)F)c1 (centres undefined) [Bicalutamide (Casodex)] | 101%
CCOC(=O)c1cncn1[C@H](C)c1ccccc1 | 79.6%
O=c1cccc2n1C[C@@H]1CNC[C@H]2C1 | 95.5%
NCC1(CC(=O)O)CCCCC1 | 94.2%
C=CCc1ccc(OC)cc1 | 107%
CC[C@@H](C)C(=O)O[C@H]1[C@H](O)[C@H]2[C@@H](CN3C[C@@H](C)CC[C@H]3[C@@]2(C)O)[C@@H]2C[C@]34O[C@]5(O)[C@@H](OC(=O)[C@@](C)(O)CC)CC[C@@]3(C)[C@@H]5[C@@H](OC(C)=O)[C@@H](OC(C)=O)[C@H]4[C@@]21O | 89.1%
CC(N)C(O)c1ccccc1 (centres undefined) | 114%
CC1(C)C(=O)[C@@H]2O[C@@H]2[C@@]2(C)C1C[C@@H](O)[C@]1(C)C2CC[C@@]2(C)[C@H](c3ccoc3)OC(=O)C3OC321 (stereo partly drawn) [1,2alpha-EPOXYDEACETOXYDIHYDROGEDUNIN] | 91.4%
O=C(CCCN1CCC2(CC1)C(=O)NCN2c1ccccc1)c1ccc(F)cc1 | 103%
O=[N+]([O-])O[C@H]1CO[C@H]2[C@@H]1OC[C@H]2O[N+](=O)[O-] | 116%

Compound | cell viability
CC(C)(O)[C@@H]1[C@H]2OC(=O)[C@@H]1[C@]1(O)C[C@H]3O[C@]34C(=O)O[C@H]2[C@]14C | 87.8%
CC(C)(C#N)O[C@@H]1O[C@H](CO)[C@@H](O)[C@H](O)[C@H]1O | 109%
CC(=O)O[C@H]1C(=O)[C@@]2(C)[C@H]([C@H](OC(=O)c3ccccc3)[C@]3(O)C[C@H](O)C(C)=C1C3(C)C)[C@]1(OC(C)=O)CO[C@@H]1C[C@@H]2O | 91.6%
C=CCc1cc(OC)c2c(c1OC)OCO2 | 98.9%
C[N+]1(C)CCc2cc3c(cc2[C@H]1[C@@H]1OC(=O)c2c1ccc1c2OCO1)OCO3 | 104%
COc1cc2c(cc1OC)[C@@H]1C(=O)c3ccc4c(c3O[C@@H]1CO2)CC(C(C)C)O4 (some centres undefined) | 77.8%
COc1ccc2c(c1OC)C(=O)O[C@H]2[C@H]1c2cc3c(cc2CCN1C)OCO3 | 93.9%
CC[C@@H](CO)NC(=O)[C@@H]1C=C2c3cccc4[nH]cc(c34)C[C@H]2N(C)C1 | 98%
CCCCOC(=O)c1ccccc1C(=O)OCCCC | 103%
O=C(O)c1nn(Cc2ccc(Cl)cc2Cl)c2ccccc12 [Lonidamine] | 86.9%
C[N+]12CC[C@@]34c5ccccc5N5C(=O)C[C@@H]6OCC=C(C1)[C@H](C[C@@H]32)[C@@H]6[C@H]54 (some centres undefined) | 102%
O=C(NC(=O)c1c(F)cccc1F)Nc1ccc(Cl)cc1 | 118%
C[C@@H]1C[C@@H]([C@H](O)CC2CC(=O)NC(=O)C2)C(=O)[C@@H](C)C1 | 18.4%
CC(NC(C)(C)C)C(=O)c1cccc(Cl)c1 (centres undefined) | 130%
O=C(O)CCCO | 103%
C=CCSSCC=C | 91.1%
CC(=O)[C@H]1CC[C@H]2[C@@H]3CC[C@H]4C[C@H](O)CC[C@]4(C)[C@H]3CC[C@]12C | 87.7%
NCC(CC(=O)O)c1ccc(Cl)cc1 (centres undefined) | 98.1%
CC(C)[C@]12O[C@H]1[C@@H]1O[C@]13[C@]1(O[C@H]1C[C@H]1C4=C(CC[C@@]13C)C(=O)OC4)[C@@H]2O [Triptolide] | 2.21%
CC(=O)O[C@H]1[C@H]2[C@@H](OC(=O)Cc3ccccc3)[C@@H](C)C[C@]2(OC(C)=O)C(=O)/C(C)=C/[C@@H]2[C@H](CC[C@@]13CO3)C2(C)C | 96.8%
NC(=O)c1cc([N+](=O)[O-])cc([N+](=O)[O-])c1 | 95%
COc1ccc2c(c1O)-c1c(OC)c(OC)cc3c1[C@H](C2)N(C)CC3 | 96.4%
O=C1CC[C@@]2(O)[C@H]3Cc4ccc(O)c5c4[C@@]2(CCN3CC2CC2)[C@H]1O5 | 109%
CN[C@@H]1[C@@H](O)[C@@H](O[C@@H]2[C@@H](O)[C@H](O[C@H]3O[C@H](CN)CC[C@H]3N)[C@@H](N)C[C@H]2N)OC[C@]1(C)O.CN[C@@H]1[C@@H](O)[C@@H](O[C@@H]2[C@@H](O)[C@H](O[C@H]3O[C@H]([C@@H](C)N)CC[C@H]3N)[C@@H](N)C[C@H]2N)OC[C@]1(C)O.CN[C@@H]1[C@@H](O)[C@@H](O[C@@H]2[C@@H](O)[C@H](O[C@H]3O[C@H]([C@@H](C)NC)CC[C@H]3N)[C@@H](N)C[C@H]2N)OC[C@]1(C)O | 101%
CN1C[C@H](C(=O)N[C@]2(C)O[C@@]3(O)[C@@H]4CCCN4C(=O)[C@H](Cc4ccccc4)N3C2=O)C=C2c3cccc4[nH]cc(c34)C[C@H]21 | 48.2%

Compound | cell viability
CNc1ccccc1C(=O)O | 104%
CCC(C)C(=O)O[C@@H]1C[C@@]2(C)[C@H](c3ccoc3)OC(=O)CC23OC2(C)O[C@]14[C@]1(C)[C@@H](CC(=O)OC)C5(C)CC1(O)[C@](O)(C5OC(=O)C1(C)OC1C)[C@@H](OC(C)=O)[C@]34O2 (some centres undefined) | 95.6%
COC1=C[C@@H]2[C@@H]3Cc4ccc(OC)c(O)c4[C@]2(CCN3C)CC1=O | 81.5%
CCOC(=O)C1C(C=C(C)C)C1(C)C (centres undefined) | 104%
C/C(=C\c1csc(C)n1)[C@@H]1C[C@@H]2O[C@@H]2CCC[C@H](C)[C@H](O)[C@@H](C)C(=O)C(C)(C)[C@@H](O)CC(=O)O1 [Epothilone A] | 18.5%
O=C1C=CC(=O)c2ccccc21 | 89.5%
CN[C@@H](C)[C@@H](O)c1ccccc1 | 105%
CN1[C@@H]2C[C@@H](OC(=O)[C@H](CO)c3ccccc3)C[C@H]1[C@@H]1O[C@@H]12 | 103%
C[C@@H]1O[C@@H](O[C@H]2CC[C@]3(C=O)[C@H]4CC[C@]5(C)[C@@H](C6=CC(=O)OC6)CC[C@]5(O)[C@@H]4CC[C@]3(O)C2)[C@H](O)[C@H](O)[C@H]1O | 1.83%
CC1(C)C2CC(=O)[C@]3(C)C(CC[C@@]4(C)[C@H](c5ccoc5)OC(=O)C5OC543)[C@@]2(C)[C@@H](O)C[C@H]1O (some centres undefined) | 88.5%
C[C@]12CCC(=O)C=C1C=C[C@@H]1[C@@H]2CC[C@@]2(C)[C@H]1CC[C@@]2(O)CCC(=O)O | 111%
CO[C@H]1[C@H](O)[C@H](O[C@H]2CC[C@@]3(C=O)[C@H](CC[C@@H]4[C@@H]3CC[C@]3(C)[C@@H](C5=CC(=O)OC5)CC[C@]43O)C2)O[C@@H](C)[C@@H]1O | 1.75%
CC(=O)O[C@@H]1[C@H]2CC[C@H]3[C@@](C)(O)[C@@H]4C[C@H](O)C(C)(C)[C@@]4(O)[C@H](O)C[C@@]13C[C@@]2(C)O | 100%
CC[C@@H](C(=O)[C@@H](C)[C@@H](O)[C@H](C)[C@@H]1O[C@@H]([C@@H](CC)C(=O)O)CC[C@@H]1C)[C@H]1O[C@]2(C=C[C@@H](O)[C@]3(CC[C@@](C)([C@H]4CC[C@](O)(CC)[C@H](C)O4)O3)O2)[C@H](C)C[C@@H]1C | 20.9%
COP(=O)(OC)OC=C(Cl)Cl | 99.5%
S=C=NCc1ccccc1 | 95.3%
COP(=O)(OC)C(O)C(Cl)(Cl)Cl (centres undefined) | 86.7%
CNC1CC(N)C(O)C(OC2OC(CO)C(O)C3OC4(OC(C(N)CO)C(O)C(O)C4O)OC23)C1O (centres undefined) | 103%
CCCC(C)C1(CC)C(=O)NC(=O)NC1=O (centres undefined) | 92.6%
C=CCc1ccc2c(c1)OCO2 | 97.9%
C[C@@H]1C(=O)O[C@H]2[C@H]1CC[C@@]1(C)C=CC(=O)[C@@]3(C)O[C@@]213 [EPOXY (4,5alpha)-4,5-DIHYDROSANTONIN] | 95.7%
Cn1cc(C2=C(c3cn(C4CCN(Cc5ccccn5)CC4)c4ccccc34)C(=O)NC2=O)c2ccccc21 | 111%
C[C@]12CCC(=O)C[C@@H]1CC[C@@H]1[C@@H]2CC[C@]2(C)C(=O)CC[C@@H]12 [5alpha-ANDROSTAN-3,17-DIONE] | 101%
CC(=O)O[C@H]1C[C@@H]2CC[C@@H]3[C@H](CC[C@@]4(C)[C@H]3C[C@H]([N+]3(C)CCCCC3)[C@@H]4OC(C)=O)[C@@]2(C)C[C@@H]1[N+]1(C)CCCCC1 | 88.6%

Copied from the list:
Value of `CC(N)C(O)c1ccccc1` (centres undefined) under cell viability: 114%
Value of `CC(C)(C#N)O[C@@H]1O[C@H](CO)[C@@H](O)[C@H](O)[C@H]1O` under cell viability: 109%
Value of `CC(=O)O[C@H]1C(=O)[C@@]2(C)[C@H]([C@H](OC(=O)c3ccccc3)[C@]3(O)C[C@H](O)C(C)=C1C3(C)C)[C@]1(OC(C)=O)CO[C@@H]1C[C@@H]2O` under cell viability: 91.6%
